Data from PubChem BioAssay AID504467 (National Center for Advancing Translational Sciences (NCATS), 2011).
The whole screen tested about 330,000 compounds, of which about 7,700 (2.3%) were called active. Inconclusive results, whose numbers are uncertain, are shown with a selection of clear calls. The call rests on the fitted dose curve; in most records, active means well fitted inhibition curve with a large enough effect; inconclusive means small, poorly fitted or top-dose-only effect, or effect the other way; inactive means flat fitted curve, though single readings scatter. Potencies of inconclusive entries are doubtful fits and often do not repeat.

Assay: qHTS screen for small molecules that inhibit ELG1-dependent DNA repair in human embryonic kidney (HEK293T) cells expressing luciferase-tagged ELG1; further: nearly all actives have a fitted effect of over 55% in size
Conditions: HEK293T ELG1-luciferase reporter, luminescence, 16 h, DNA damage induced by 5-fluorouridine; activity change, negative = inhibition: at 46.1 µM (top of the series)
Outline: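 Luminescence from the luciferase reporter, measured 30 min after ONE-Glo reagent at room temperature, was the read-out. Beforehand, 2,000 cells per well were exposed for 16 hr at 37 °C to 5-fluorouridine together with compound or vehicle.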
On the % scale 0 is the no-effect control and ±100 the full control effect; potency means the concentration at half of the fitted maximal effect.

Structure (SMILES)	Potency	activity change, negative = inhibition
COc1cccc(/C=N/Nc2nnc3c(n2)[nH]c2ccccc23)c1OC	inconclusive: 9.2 µM [activator, partial curve, poor fit]	
Cc1cc2nc(Sc3c([N+](=O)[O-])nc(C)n3Cc3ccccc3)[nH]c2cc1C	inconclusive: 29.1 µM [inhibitor, single point]	
COc1ccccc1/C=N/NC(=O)c1ccccc1Cl		inactive: 6.61%
Cc1ccn2c(NC(=O)c3cccs3)c(-c3ccccc3)nc2c1	inconclusive: 20.6 µM [activator, partial curve, poor fit]	
O=C(N/N=C/c1cccc(F)c1)c1c(O)c2c([nH]c1=O)CCCC2	inconclusive: 2.91 µM [activator, partial curve]	
Cc1ccc(/C=N/Nc2nc3ccccc3[nH]2)s1	inconclusive: 4.11 µM [activator, full curve]	
O=C(OCC(=O)c1c[nH]c2ccccc12)c1ccco1	inconclusive: 16.4 µM [activator, partial curve]	
Cc1cc(C)c2c(SC(C)C)nc(N)nc2n1		inactive: 4.96%
Cc1cc(O)cc2c(=O)c3ccccc3sc12	inconclusive: 29.1 µM [activator, single point]	
COc1cc2c(cc1OC)C(c1cccc(Br)c1)NC(=O)C2 (stereo unspecified)	inconclusive: 13 µM [activator, partial curve]	
COc1ccc(CNCC(O)COc2cccc3c2OC(C)(C)C3)cc1 (stereo unspecified)	active: 9.2 µM	
CCOc1ccc(S(=O)(=O)Nc2ccc(C(=O)N3CCCC3)cc2)cc1C(N)=O		inactive: 21.5%
CC(C)Cc1nnc(NC(=O)C2CSC3(C)CCC(=O)N23)s1 (stereo unspecified)		inactive: 0.473%
CN(C)C(=O)c1ccc(NC(=O)c2ccccc2SCC(=O)N2CCCC2)cc1	inconclusive: 20.6 µM [activator, single point]	
O=C(NCc1ccncc1)C12CC3CC(CC(Cl)(C3)C1)C2		inactive: 28.6%
COC(=O)COc1ccc(S(=O)(=O)NC2CCCCCC2)cc1		inactive: -0.424%
COc1ccc(NC(=O)c2ccc(-c3ccccc3C(F)(F)F)o2)cc1	inconclusive: 25.9 µM [activator, single point]	
O=C(Cc1csc(-c2ccccc2)n1)NCc1ccco1	inconclusive: 29.1 µM [activator, single point]	
Nc1ccn(CC(=O)NCc2ccccn2)c(=O)n1	inconclusive: 18.3 µM [activator, single point]	
CCC(CO)Oc1cc(NCc2ccccc2O)c2ncn(C(C)C)c2c1 (stereo unspecified)	active: 2.31 µM	
COc1ccc(OC)c(S(=O)(=O)NCc2ccccn2)c1		inactive: 0.172%
NC(=O)C1CC(=O)N(c2ccc(OCC(=O)Nc3ccccc3F)cc2)C1 (stereo unspecified)	inconclusive: 13 µM [activator, partial curve]	
NS(=O)(=O)c1ccc(N/N=C2/CCCCC2C2CCCCC2)c([N+](=O)[O-])c1 (stereo unspecified)	inconclusive: 29.1 µM [inhibitor, single point]	
O=C(N/N=C/c1ccc(-c2ccccc2C(=O)O)o1)c1cccs1	inconclusive: 20.6 µM [activator, single point]	
C=CCSC1=N/C(=C\c2ccc(C(=O)O)cc2)C(=O)S1		inactive: 6.52%
NCCCNCCCCNCCCN	inconclusive: 16.4 µM [activator, partial curve, poor fit]	

Laid out differently: results already given.
Cc1ccn2c(NC(=O)c3cccs3)c(-c3ccccc3)nc2c1
  Potency: inconclusive: 20.6 µM [activator, partial curve, poor fit]
Cc1cc(C)c2c(SC(C)C)nc(N)nc2n1
  activity change, negative = inhibition: inactive: 4.96%

Further entries follow:

Structure (SMILES)	Potency	activity change, negative = inhibition
Cc1[nH]c2ccccc2c1/C=N/NC(=O)c1cc(-c2ccccc2)n[nH]1	active: 20.6 µM	
O=C(Nc1nnc(COc2ccc(Cl)cc2)s1)c1cccs1		inactive: 13.7%
COc1ccc(S(=O)(=O)N/N=c2\oc3c(OC)cccc3cc2S(=O)(=O)c2ccc(C)cc2)cc1OC	inconclusive: 18.3 µM [activator, single point]	
O=C1C(C=Nc2ccc(F)cc2)=C(O)c2ccccc21	inconclusive: 4.61 µM [activator, partial curve]	
CCc1ccc(NC(=O)c2noc3c2CCc2ccccc2-3)cc1	inconclusive: 20.6 µM [activator, partial curve]	
COC(=O)CSc1nnc2n1C(C)(C)Cc1ccccc1-2		inactive: -4.08%
O=C(NCC(c1cccs1)N1CCOCC1)c1cc2ccccc2oc1=O (stereo unspecified)	inconclusive: 25.9 µM [inhibitor, single point]	
O=C(Cc1cccs1)Nc1nnc(SCc2ccc(Br)cc2)s1	inconclusive: 18.4 µM [activator, single point]	
O=S(=O)(c1cccs1)N1CCN(C/C=C/c2ccccc2)CC1	inconclusive: 20.6 µM [inhibitor, single point]	
CC(C)CCNC(=O)CC1Nc2c3ccccc3nc(=S)n2C1=O (stereo unspecified)		inactive: -13.8%
COC(=O)c1ccc(C23CC4(C2)[C@H](CN(C)[C@@H]4c2ccccc2)C3c2ccc(C(F)(F)F)cc2)cc1 (stereo partly specified)		inactive: -8.48%
COc1ccc(/C=N/Nc2ncc(C(F)(F)F)cc2Cl)c(OC)c1OC		inactive: 15.6%
Cn1cc(Br)c(C(=O)NC(=S)N2CCN(c3ccccn3)CC2)n1		inactive: -8.19%
CCOC(=O)C1CCCN(C(=O)c2cccc(S(=O)(=O)N(C)c3c(C)n(C)n(-c4ccccc4)c3=O)c2)C1 (stereo unspecified)		inactive: 4.38%
COc1ccc(-c2nnc(SCC(=O)N(C)C3CCS(=O)(=O)C3)n2C(C)C)cc1 (stereo unspecified)		inactive: 16.7%
CC(C)(C)c1csc(NC2=NS(=O)(=O)c3ccccc32)n1	inconclusive: 8.2 µM [activator, partial curve]	
CN1CCN(c2ccc(NC(=O)COc3cccc4ccccc34)cc2)CC1		inactive: -1.68%
C=CCSC1=Nc2cc(OC)c(OC)cc2C2=NC(=O)CN12		inactive: 3.14%
CCC(C)NC(=O)[C@@H]1CCCN1C(=O)C1CCN(S(=O)(=O)c2ccc(C)cc2)CC1 (stereo partly specified)	inconclusive: 20.6 µM [activator, single point]	
Cc1cccc(NC(=O)c2cccs2)n1	inconclusive: 3.26 µM [activator, single point]	
Cc1ccc(Nc2cc(C)nc3ncnn23)c(Cl)c1	inconclusive: 29.1 µM [activator, single point]	
COc1ccc2[nH]c(=O)c(CN(Cc3ccc4c(c3)OCO4)C(C)=O)cc2c1		inactive: -16.6%
CCOC(=O)CSc1nn(-c2ccccc2)c(=S)s1		inactive: 18%
CCCCn1cnc2c(oc3nc4c(cc32)CCCC4)c1=O	inconclusive: 2.91 µM [activator, partial curve]	
CN(C)c1cccc(N(C)C)c1CNC(=O)NC(=O)c1c(F)cccc1F		inactive: -21.6%
Cc1ccc(OCC(=O)Nc2ccc(O)c(-c3nc4ccccc4o3)c2)cc1		inactive: -12%

Structure (SMILES)	Potency	activity change, negative = inhibition
COc1ccc(S(=O)(=O)c2c(O)c3ccc(C(=O)Nc4cccc(F)c4)cc3[nH]c2=O)cc1		inactive: 0%
O=C(NCCOc1ccccc1)c1cncc(Br)c1	inconclusive: 18.4 µM [activator, partial curve]	
CCC(=O)NCCc1nc2cc(NC(=O)c3ccc(OC)cc3)ccc2n1C	inconclusive: 14.6 µM [activator, partial curve]	
CN1CCC(N(C)C(=O)/C(C#N)=C/c2ccccc2)CC1	inconclusive: 20.6 µM [activator, single point]	
O=C(Nc1ccc(NC(=O)C2CC2)nc1)c1cnccn1		inactive: 3.55%
CCOc1ccc(OCCC(=O)OCC(=O)NC2CCCCC2)cc1		inactive: 22.2%
COc1cc(C(=O)Nc2nnc(CC(C)C)s2)c([N+](=O)[O-])cc1OC		inactive: -11.7%
COc1ccc(-c2coc3cc(OC4OC(CO)C(O)C(O)C4O)ccc3c2=O)cc1 (stereo unspecified)	inconclusive: 7.3 µM [activator, partial curve]	
COc1ccc(CCN2C(=O)c3cccnc3C2=O)cc1OC		inactive: 6.98%
CCOC(=O)Cn1nc(NC(=O)c2cc(OC)cc(OC)c2)cc1C	inconclusive: 29.1 µM [activator, single point]	
CNC(=S)/N=C/NOCc1c(Cl)cccc1Cl	inconclusive: 23.1 µM [inhibitor, single point]	
COC(=O)CCC(=O)N1CN2CN(C(=O)CCC(=O)OC)CC([N+](=O)[O-])(C2)C1	inconclusive: 16.4 µM [activator, partial curve, poor fit]	
Cc1csc(NC(=O)c2ccc3c(=O)n4c(nc3c2)CCCCC4)n1	inconclusive: 2.06 µM [activator, partial curve]	
Cc1cc(NC(=O)CCOc2ccccc2)no1	inconclusive: 16.4 µM [activator, partial curve, poor fit]	
CCOC(=O)c1c(NC(=O)N/N=C/c2ccccc2OCC)sc(C(C)=O)c1C		inactive: -8.15%
CCc1nc2sc3c(c2c(=O)o1)CCCC3	inconclusive: 18.4 µM [activator, partial curve, poor fit]	
COc1ccccc1NC(=O)N1CCN(c2ccnc3cc(Cl)ccc23)CC1	active: 11.6 µM	
Cc1cc2ccccn2c1C(=O)c1nc(NCc2ccccc2)ncc1Cl	inconclusive: 29.1 µM [inhibitor, single point]	
Cc1ccc(SCc2ccc(C(=O)N3CCCCC3)cc2)cc1	inconclusive: 14.6 µM [activator, partial curve, poor fit]	
Cc1c(NC(=O)C(C)OC(=O)c2ccccc2O)c(=O)n(-c2ccccc2)n1C (stereo unspecified)		inactive: 22.8%
Cc1cc(Cl)ccc1OCC(=O)OC(C)C(=O)NC(N)=O (stereo unspecified)	inconclusive: 35.5 µM [inhibitor, single point]	
O=C(NC(=S)NC1CCCC1)c1ccccc1	inconclusive: 16.4 µM [activator, partial curve]	
COc1cc(NC(=S)Nc2ccc(N(C)C(C)=O)cc2)cc(OC)c1		inactive: 8.63%
O=c1c2ccccc2[nH]c(=S)n1CCc1ccccc1	inconclusive: 7.31 µM [activator, partial curve]	

Entries of single compounds as entered above.
Cc1c(NC(=O)C(C)OC(=O)c2ccccc2O)c(=O)n(-c2ccccc2)n1C (stereo unspecified) is listed with activity change, negative = inhibition: inactive: 22.8%
CCOc1ccc(OCCC(=O)OCC(=O)NC2CCCCC2)cc1 is listed with activity change, negative = inhibition: inactive: 22.2%
COc1ccc(S(=O)(=O)c2c(O)c3ccc(C(=O)Nc4cccc(F)c4)cc3[nH]c2=O)cc1 is listed with activity change, negative = inhibition: inactive: 0%
